Assay results reported in patent US20140248710.
For part of these data: The exact form of at least one protein or probe is not confirmed. For part of these data: No signal at the amounts used counts as a negative. For part of these data: Protein sequences can lack the tags named with them. For part of these data: Whether high values mean tight binding is not given here for every scale.

How the values were obtained:
Thrombin [1] = assay: binding assay; conditions: 5 Spacer18 linkers, FRET beacon, purified native protein, protein details: gift from Dr. Ray Rezaie (St. Louis University), Texas Red (THR27), folded or branched DNA
Prothrombin = Prothrombin (UniProt P00734); assay: binding assay; conditions: 5 Spacer18 linkers, amino-dT in THR27; reduced beacon sensitivity compared with thrombin; beacon variant not explicitly stated; purified native protein; protein details: Sigma; label: 5' fluorescein (THR21), Texas Red (THR27); folded or branched DNA
Ovalbumin = molecular target: T1, Ovalbumin (UniProt P01012); assay: binding assay; conditions: 5 Spacer18 linkers, amino-dT in THR27; no effect on beacon signal; beacon variant not explicitly stated; purified native protein; protein details: Sigma; label: 5' fluorescein (THR21), Texas Red (THR27); folded or branched DNA
T1 sequence (looked up, limits assumed): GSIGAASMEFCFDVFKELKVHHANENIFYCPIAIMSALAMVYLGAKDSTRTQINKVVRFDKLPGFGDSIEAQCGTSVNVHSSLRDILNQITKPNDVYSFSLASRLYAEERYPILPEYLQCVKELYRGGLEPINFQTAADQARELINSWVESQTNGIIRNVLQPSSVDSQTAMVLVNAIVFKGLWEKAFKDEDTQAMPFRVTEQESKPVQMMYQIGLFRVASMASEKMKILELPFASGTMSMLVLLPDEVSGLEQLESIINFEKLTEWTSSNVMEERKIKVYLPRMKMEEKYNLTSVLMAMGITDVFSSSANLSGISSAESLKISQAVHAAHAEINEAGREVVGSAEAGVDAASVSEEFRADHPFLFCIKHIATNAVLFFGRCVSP

[2] = molecular target: Single-stranded DNA binding protein (SSB) (Escherichia coli) (UniProt P0AGE0); assay: binding assay; conditions: 5 Spacer18 linkers, amino-dT in THR27; no significant beacon response at nM SSB; purified recombinant protein; protein details: Sigma; label: 5' fluorescein (THR21), Texas Red (THR27); folded or branched DNA
Factor Xa = assay: binding assay; conditions: 5 Spacer18 linkers, amino-dT in THR27; no effect on beacon signal without thrombin; beacon variant not explicitly stated; purified native protein; protein details: Sigma; label: 5' fluorescein (THR21), Texas Red (THR27); folded or branched DNA
Thrombin [3] = assay: inhibition of the protein; conditions: blood clotting; beacon about 240 times more effective than THR3; purified native protein; protein details: gift from Dr. Ray Rezaie (St. Louis University); single-stranded DNA; dose not given here
Thrombin [4] = assay: competition with a labelled probe; conditions: purified native protein, protein details: gift from Dr. Ray Rezaie (St. Louis University); for binding result: stated only as pM range, single-stranded DNA
Thrombin [5] = assay: SELEX; conditions: recurrent clone, purified native protein, protein details: gift from Dr. Ray Rezaie (St. Louis University)
Thrombin [6] = assay: EMSA; conditions: purified native protein, protein details: gift from Dr. Ray Rezaie (St. Louis University)
Trypsin = Trypsin (UniProt P00760); assay: binding assay; conditions: 5 Spacer18 linkers; no beacon signal; purified native protein; protein details: Sigma; label: 3' dabcyl (THR20), 5' fluorescein (THR21); folded or branched DNA
[7] = individual binding not measured, single-stranded …

“AGATGCGAGGTTGGGGGTACTAGGTATCAATGGGTAGGGTGGTGTAACGC / GGTTGGTGTGGTTGGCTCGCATCT [THR35/THR27 beacon]”: binds (Thrombin [1]; 20 or 100 nM sensor, label: 5' fluorescein (THR35)).

With “AGATGCGAGTCCGTGGTAGGGCAGGTTGGGGTGACT / GGTTGGTGTGGTTGGCTCGCATCT [THR21/THR27 beacon]” the binding result (Thrombin [1]; amino-dT in THR27, label: 5' fluorescein (THR21)) was “binds”, the binding signal (Prothrombin) was over 20 fold and the binding result (Ovalbumin) was “no binding”. “AGATGCGAGTCCGTGGTAGGGCAGGTTGGGGTGACT / GGTTGGTGTGGTTGGCTCGCATCT [THR21/THR27 beacon]”: no binding [2]; no binding (Factor Xa).

“AGATGCGAGTGAAGGTTGGGGGTACTAGGTATCAATGGGTAGGGTGGTGTAACGCCATAT / GGTTGGTGTGGTTGGCTCGCATCT [THR36/THR27 beacon]”: binds (Thrombin [1]; 20 or 100 nM sensor, label: 5' fluorescein (THR36)).

For “AGTCCGTGGTAGGGCAGGTTGGGGTGACT [THR3 (60-18 [29])]”, the “functional effect of the aptamer” value (Thrombin [3]) was “active”.

“AGTCCGTGGTAGGGCAGGTTGGGGTGACTGGTTGGTGTGGTTGG [THR5 bivalent]”: binds (Thrombin [4]; 5 Spacer18 between 60-18[29] and G15D, slightly weaker than THR6, reduced competition when THR3 in excess).

“AGTCCGTGGTAGGGCAGGTTGGGGTGACTGGTTGGTGTGGTTGG [THR6 bivalent]”: binds (Thrombin [4]; 10 Spacer18 between 60-18[29] and G15D, weaker than THR7, variant of THR5 bivalent).

In the case of “CAGGATGGGTAGGGTGGTCAGCGAAGCAGTAGG [Clone 13 (= 15, 19)]”, the selection result (Thrombin [5]; [7]) is reported as “selected”.

In the case of “GCAGTAGGTACTATATTGGCTAGGGTGGTCTGC [Clone 5 (= 6, 29, 31, 32, 33)]”, the selection result (Thrombin [5]; [7]) is reported as “selected”.

For “GGATGCGTAATGGTTAGGGTGGGTAGGGTATCC [Clone 2 (= 3, 4, 8)]”, the selection result (Thrombin [5]; [7]) was “selected”.

In the case of “GGGGGTACTAGGTATCAATGGGTAGGGTGGTGT [Clone 20 (= 21, 24, 26)]”, the selection result (Thrombin [5]; verified in sensor as THR35 and THR36, single-stranded DNA) is reported as “selected”.

In the case of “GGGTAGGGTGGTTGTAATAGGGATTGCGAT [Clone 1-1 (= 1-2, 1-4, 1-5, 1-9)]”, the selection result (Thrombin [5]; [7]) is reported as “selected”.

With “GGTAGGGTGGTTAAAATAGGGGAATGGCAG [Clone 2-4 (= 2-7, 2-10)]” the selection result (Thrombin [5]; [7]) was “selected”.

“GGTTGGTGTGGTTGGAGTCCGTGGTAGGGCAGGTTGGGGTGACT [THR7 bivalent]”: binds (Thrombin [6]; 10 Spacer18 between G15D and 60-18[29], 1:1 stoichiometry, single-stranded DNA).

With “GGTTGGTGTGGTTGGCGCATCT / AGATGCGAGTCCGTGGTAGGGCAGGTTGGGGTGACT [THR20/THR21 beacon]” the binding result (Thrombin [6]; 5 Spacer18 linkers, stable complex with THR20, THR21 and thrombin, label: 3' dabcyl (THR20), 5' fluorescein (THR21), folded or branched DNA) was “binds”, the binding result (Trypsin) was “no binding” and the binding signal (Thrombin [4]; 5 Spacer18 linkers, mixture binds tighter than individual aptamers, label: 3' dabcyl (THR20), 5' fluorescein (THR21), folded or branched DNA) was 36 fold.

In the case of “TAGGATGGGTAGGGTGGTCCCAGGAATGGC [Clone 2-8 (= 2-12)]”, the selection result (Thrombin [5]; [7]) is reported as “selected”.
